Results from doi:10.1101/2021.08.17.452482.
Like-named read-outs stand apart in the source and are kept apart here. Results are given in words; binding and its absence hold for the method and conditions named. In cells and extracts the contact can be indirect. Some results given as binding are weak or reduced against the parent protein; the word gives no strength.

Chains of the proteins cited; added tags and fusions are not shown.
UniProt P24385: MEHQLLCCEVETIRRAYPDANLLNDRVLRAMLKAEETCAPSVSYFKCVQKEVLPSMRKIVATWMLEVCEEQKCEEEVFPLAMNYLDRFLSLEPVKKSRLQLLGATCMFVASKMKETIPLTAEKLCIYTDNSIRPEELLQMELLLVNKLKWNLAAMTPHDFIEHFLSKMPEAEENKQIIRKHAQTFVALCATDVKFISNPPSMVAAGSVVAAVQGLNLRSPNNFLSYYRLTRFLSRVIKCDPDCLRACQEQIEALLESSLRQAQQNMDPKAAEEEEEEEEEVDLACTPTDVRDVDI
UniProt P38936: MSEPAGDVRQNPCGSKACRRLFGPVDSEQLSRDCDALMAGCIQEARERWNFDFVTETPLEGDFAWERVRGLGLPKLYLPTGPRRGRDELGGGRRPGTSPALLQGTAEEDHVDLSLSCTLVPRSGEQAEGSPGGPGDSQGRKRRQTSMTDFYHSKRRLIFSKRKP
UniProt P46527: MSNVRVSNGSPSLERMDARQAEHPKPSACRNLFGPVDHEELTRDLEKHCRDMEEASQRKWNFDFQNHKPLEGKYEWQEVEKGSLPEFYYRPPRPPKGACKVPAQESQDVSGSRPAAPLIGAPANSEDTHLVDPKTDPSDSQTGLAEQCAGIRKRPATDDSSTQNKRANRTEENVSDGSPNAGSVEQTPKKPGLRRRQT

Tests used:
Assay in all cases: co-IP
[1] = target: Cyclin D1 (human (endogenous in HDF, U2OS, HCT-116)) (UniProt P24385)
[2] = target: Cyclin D1 (human (endogenous in HDF, U2OS, HCT-116)) (UniProt P24385); remark: listed apart in the source
[3] = target: Cyclin D1 (human (endogenous in HDF, U2OS, HCT-116)) (UniProt P24385); remark: listed apart in the source
[4] = target: CDK inhibitor p21^Waf1/Cip1 (human (endogenous in HDF, U2OS, HCT-116)) (UniProt P38936)

Substance	binding [1]	binding [2]	binding [3]	binding [4]
CDK inhibitor p21^Waf1/Cip1 (from UniProt P38936 1-164)	binds	binds	binds	
CDK inhibitor p27^Kip1 (from UniProt P46527 1-198)	binds			
Cyclin D1 (from UniProt P24385 1-295)				binds
